The source of these data is publication PMC9848282, “Antinociceptive activity of doliroside B” (Pharmaceutical Biology, 2023).

This assay relates to acetic acid-induced writhing in Kunming mice. In words: Acetic acid-induced writhing test. The assay is classed as in vivo. (In general: An intraperitoneal irritant provokes the stretching counted in writhing tests.)

As a reminder, the ED50 is the dose at which the effect has come halfway, by size or by number of responders. With `CN1CC[C@]23c4c5ccc(O)c4O[C@H]2[C@@H](O)C=C[C@H]3[C@H]1C5` [MOP, morphine], the ED50 (Mus musculus, read-out: ED50 (median effective dose)) worked out at 0.22 mg/kg. In addition, the “effect of NAL on the reduction of writhing number” value (mouse, in vivo) was “NAL removed the effect of morphine”.
